{"source": "paper PMC3949517", "about": "(Acta Crystallographica Section D: Biological Crystallography, 2014)", "test_system": "A17λ reactibody (FabA17λ)", "assay_type": "biochemical, human"}
{"substance": "p-nitrophenyl 8-methyl-8-azabicyclo[3.2.1]octylphenylphosphonate [phosphonate X]", "values": [{"measurement": "ΔS, phosphonate X", "value": "7.6 1.8 calmol^1 K^1"}]}
